This note sets out measurements from paper PMC4599002, “The Potato Nucleotide-binding Leucine-rich Repeat (NLR) Immune Receptor Rx1 Is a Pathogen-dependent DNA-deforming Protein” (The Journal of Biological Chemistry, 2015).

For some of these results: A weaker result is weaker than the reference pair of the same experiment. Where a protein sequence is shown, tags need not be part of it. For some of these results: The exact form of at least one protein or probe is not confirmed. For some of these results: At least one verdict was read from the data and is not stated in words by the source.

Common to all, as to test: EMSA
(In general: A gel shift assay detects complexes by their altered migration in electrophoresis.)

For data set [1], the target named is T1, Rx1-4Strep (potato (introgressed from Solanum andigena)) (UniProt Q9XGF5).
T1 sequence (looked up): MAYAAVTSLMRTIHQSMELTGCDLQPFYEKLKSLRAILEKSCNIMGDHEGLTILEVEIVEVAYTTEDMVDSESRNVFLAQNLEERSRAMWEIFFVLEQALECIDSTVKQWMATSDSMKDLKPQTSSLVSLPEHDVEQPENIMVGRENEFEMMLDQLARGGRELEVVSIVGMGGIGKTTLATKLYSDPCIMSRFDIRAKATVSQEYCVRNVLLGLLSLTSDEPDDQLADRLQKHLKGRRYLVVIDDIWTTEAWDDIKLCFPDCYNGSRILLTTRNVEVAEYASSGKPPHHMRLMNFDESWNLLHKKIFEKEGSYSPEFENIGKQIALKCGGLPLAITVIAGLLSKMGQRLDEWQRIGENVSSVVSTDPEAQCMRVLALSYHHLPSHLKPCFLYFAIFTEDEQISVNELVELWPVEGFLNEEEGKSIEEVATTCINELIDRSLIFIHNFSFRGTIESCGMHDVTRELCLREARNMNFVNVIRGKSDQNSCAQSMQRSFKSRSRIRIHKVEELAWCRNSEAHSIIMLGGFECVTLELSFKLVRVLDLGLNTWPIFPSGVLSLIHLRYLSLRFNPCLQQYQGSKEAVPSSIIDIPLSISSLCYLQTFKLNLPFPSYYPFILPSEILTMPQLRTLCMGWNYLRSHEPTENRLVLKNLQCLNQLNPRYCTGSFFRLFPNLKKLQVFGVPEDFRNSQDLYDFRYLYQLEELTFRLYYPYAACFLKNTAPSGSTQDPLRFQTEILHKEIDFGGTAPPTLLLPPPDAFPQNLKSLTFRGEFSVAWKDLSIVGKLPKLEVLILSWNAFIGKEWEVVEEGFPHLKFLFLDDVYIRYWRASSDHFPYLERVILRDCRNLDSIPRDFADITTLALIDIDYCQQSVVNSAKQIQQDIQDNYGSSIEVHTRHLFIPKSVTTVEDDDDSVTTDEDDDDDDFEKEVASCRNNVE
The following applies: 1 uM protein, binds, weaker than E. coli Rx1(1-489); EMSA: 0.15 nM 32P nucleic acid, 20 mM Tris-HCl pH 8.0, 60 mM NaCl, 2 mM EDTA, 1 mM DTT, 10% glycerol, 0.1 mg/ml BSA, 20 min on ice; recombinant protein; residues 1-937; protein details: C-terminal 4x StrepII; label: 32P 5' end; single-stranded DNA.

Data set [2] concerns the target T2, PSiP-NB-ARC (Zea mays) (UniProt A0A1D6GX18).
T2 sequence (looked up): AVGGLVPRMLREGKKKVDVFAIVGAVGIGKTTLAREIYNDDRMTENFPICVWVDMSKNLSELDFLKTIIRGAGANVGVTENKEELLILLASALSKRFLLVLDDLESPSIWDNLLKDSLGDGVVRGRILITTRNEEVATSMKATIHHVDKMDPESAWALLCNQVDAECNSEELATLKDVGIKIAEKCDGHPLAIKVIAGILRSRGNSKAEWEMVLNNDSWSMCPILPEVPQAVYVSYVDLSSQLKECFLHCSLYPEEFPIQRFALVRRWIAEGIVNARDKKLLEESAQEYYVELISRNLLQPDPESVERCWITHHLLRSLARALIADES
The following applies: Kd in Table 1 not in material; EMSA: 0.15 nM 32P nucleic acid, 20 mM Tris-HCl pH 8.0, 60 mM NaCl, 2 mM EDTA, 1 mM DTT, 10% glycerol, 0.1 mg/ml BSA, 20 min on ice; recombinant protein; residues 178-505; label: 32P 5' end; single-stranded DNA.

For data set [3], the target named is T3, Rx1(1-489) K176R (potato (introgressed from Solanum andigena)) (UniProt Q9XGF5).
T3 sequence (looked up): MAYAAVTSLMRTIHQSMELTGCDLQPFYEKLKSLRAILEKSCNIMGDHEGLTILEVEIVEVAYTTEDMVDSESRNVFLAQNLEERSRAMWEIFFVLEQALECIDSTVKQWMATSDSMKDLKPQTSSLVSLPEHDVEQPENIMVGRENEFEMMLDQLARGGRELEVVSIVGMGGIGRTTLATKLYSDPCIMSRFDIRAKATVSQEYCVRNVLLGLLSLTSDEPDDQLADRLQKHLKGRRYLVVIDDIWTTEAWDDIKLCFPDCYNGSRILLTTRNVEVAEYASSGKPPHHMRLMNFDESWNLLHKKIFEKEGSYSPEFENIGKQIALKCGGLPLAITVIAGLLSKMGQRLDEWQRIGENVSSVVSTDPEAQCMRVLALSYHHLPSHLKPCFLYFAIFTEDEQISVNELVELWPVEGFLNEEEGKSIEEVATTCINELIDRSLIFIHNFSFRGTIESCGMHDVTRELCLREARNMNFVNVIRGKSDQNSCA
The following applies: lower affinity than WT; EMSA: 0.15 nM 32P nucleic acid, 20 mM Tris-HCl pH 8.0, 60 mM NaCl, 2 mM EDTA, 1 mM DTT, 10% glycerol, 0.1 mg/ml BSA, 20 min on ice; recombinant protein; residues 1-489; protein details: His6 (pET32c); label: 32P 5' end; single-stranded DNA.

For data set [4], the target named is T4, PSiP-NB (Zea mays) (UniProt A0A1D6GX18).
T4 sequence (looked up): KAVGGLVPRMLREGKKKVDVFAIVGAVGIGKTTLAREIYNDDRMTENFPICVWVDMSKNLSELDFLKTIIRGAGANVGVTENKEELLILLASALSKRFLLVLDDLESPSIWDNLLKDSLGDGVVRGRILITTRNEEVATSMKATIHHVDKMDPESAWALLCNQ
The note with it: binds with considerably lower affinity than NB-ARC, Kd in Table 1 not in material; EMSA: 0.15 nM 32P nucleic acid, 20 mM Tris-HCl pH 8.0, 60 mM NaCl, 2 mM EDTA, 1 mM DTT, 10% glycerol, 0.1 mg/ml BSA, 20 min on ice; recombinant protein; residues 177-339; protein details: His6 (pRSET-B); label: 32P 5' end; single-stranded DNA.

Turning to “TGGGTCAACGTGGGCAAAGATGTCCTAGCAATGTAATCGTCTATGACGTT [SS1 ssDNA]”, the binding result is recorded as “binds more weakly” in data set [1], “binds” in data set [2], “binds more weakly” in data set [3] and “binds more weakly” in data set [4].
